The record followed here is publication PMC12538886.

No constants are given. Whether binding was seen depends on the method and setting. In cells and extracts the contact can be indirect.

The assay has as its target T1, ACOX2 (source not told) (UniProt Q99424).
T1 sequence: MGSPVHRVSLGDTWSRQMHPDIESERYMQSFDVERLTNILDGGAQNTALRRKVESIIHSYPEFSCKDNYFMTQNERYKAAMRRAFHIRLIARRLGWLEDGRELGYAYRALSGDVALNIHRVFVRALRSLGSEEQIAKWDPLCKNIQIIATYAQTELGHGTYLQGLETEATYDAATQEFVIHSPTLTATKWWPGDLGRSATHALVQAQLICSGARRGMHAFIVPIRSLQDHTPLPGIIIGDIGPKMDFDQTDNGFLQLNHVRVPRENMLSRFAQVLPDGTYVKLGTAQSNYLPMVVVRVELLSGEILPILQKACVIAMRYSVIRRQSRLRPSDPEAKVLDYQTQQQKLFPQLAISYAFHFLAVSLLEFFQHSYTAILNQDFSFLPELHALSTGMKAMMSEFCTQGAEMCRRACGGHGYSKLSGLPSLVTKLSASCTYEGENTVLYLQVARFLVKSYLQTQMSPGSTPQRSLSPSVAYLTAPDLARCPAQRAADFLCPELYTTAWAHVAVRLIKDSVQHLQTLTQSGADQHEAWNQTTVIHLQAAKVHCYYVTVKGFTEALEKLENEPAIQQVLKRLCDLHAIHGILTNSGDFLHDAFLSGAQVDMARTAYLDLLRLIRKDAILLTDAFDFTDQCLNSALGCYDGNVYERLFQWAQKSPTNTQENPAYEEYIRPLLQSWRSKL
In words: co-IP; truncated mutants of ACOX2 with MRE11 (Fig. 3I) and of MRE11 with ACOX2 (Fig. 3K); cells not given.

Regarding “MRE11 truncated mutant lacking the RAD50-binding region (MD4) (domain or fragment)”, the binding entry was “no binding”.
